Assay results taken from PubChem BioAssay AID1347423 (Functional Genomics Laboratory (NCATS/FGL), 2020).
About 210 (0.4%) of roughly 52,000 sequences were called active.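 The calls were made as follows: active = gene whose silencing raises cell survival under the drug, median off-target-corrected z-score across its silencing RNAs 2 or more; inactive = the rest.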 Some of the results follow.

Assay: Resistance to Poly (ADP-Ribose) Polymerase inhibitor: Gene Identification via Genome-wide siRNA Screen
Conditions: mouse BRCA2 R2336H ES cells, olaparib, CellTiter-Glo viability; stronger effect = higher value
In short: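 Mouse BRCA2 R2336H ES cells were reverse-transfected with siRNA (20 nM final), treated at 48 h with 500 nM olaparib, and read by CellTiter-Glo after 72 h. Scores: MAD-based z per siRNA, median per gene, seed off-target correction.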

Row | Sequence | z-score
1 | GGACCUUGGAUAUAAAGGUTT against B430110G05Rik | inactive: 0.331
2 | GGACAAGUAUGAAUGUCUATT against Ptk2b | inactive: -1.18
3 | GCUGCGUUACUGGAAGUUUTT against Loxl2 | inactive: -0.526
4 | GGGAGGUGAAACUGAGAAUTT against Mcpt4 | inactive: -1.38
5 | GGUCCCUUGAUGUCGAUUATT against Simp-pending | inactive: -0.645
6 | GGUGGUUUAACUGGAUAUUTT against BC017133 | inactive: -1.98
7 | GGUGAAGAUGGACUCUCUGTT against Rg9mtd3 | inactive: -0.193
8 | GGUAACACCUUCCUUUAAGTT against 6.33E+19 | inactive: 0.422
9 | GGCAUUUGAAGAUGAAAUGTT against Bzw2 | inactive: 0.163
10 | GGUCAUGUCCAUCCCAAAGTT against D5Ertd40e | inactive: 0.835
11 | GGAGCUAGAACAGUUUGCCTT against Pou5f1 | inactive: -1.64
12 | CGGUUAGAGCAUUAAGUUCTT against Lias | inactive: 0.279
13 | GUUUAUAGGUAACUGUCACTT against Defb11 | inactive: -0.067
14 | GGAGACCUUCAACUUGUACTT against Ephb1 | inactive: 0.473
15 | GCACAUGUGUUUAUACAUUTT against Sfxn3 | inactive: -2.07
16 | GCACAGACUGAGAGGAAAATT against Mog | inactive: 0.461
17 | GCAGUGCCUGCAGAUUCUUTT against 1110061N23Rik | inactive: 1.53
18 | GGGAGUAAAAAGGUGAUCATT against Gfra2 | inactive: -0.153
19 | GGAUACUCUCAGGACGUGATT against Ncbp2 | inactive: 3.82
20 | GGUGGUCCGUAAAGUGGUUTT against Slc25a15 | inactive: 1.71
21 | GCAACUGCUUCUAAUAAGATT against Leprel2 | inactive: 0.0379
22 | CGUGGAUAUCAGAAAGCAATT against Cfhrb_4/2 | inactive: -1.04
23 | GGGUCUCAUGAAGAAAUUUTT against 0610009F02Rik | inactive: 0.171

As a working copy, part of the list above.
Row | Sequence | z-score
1 | GGACCUUGGAUAUAAAGGUTT against B430110G05Rik | inactive: 0.331
2 | GGACAAGUAUGAAUGUCUATT against Ptk2b | inactive: -1.18
3 | GCUGCGUUACUGGAAGUUUTT against Loxl2 | inactive: -0.526
4 | GGGAGGUGAAACUGAGAAUTT against Mcpt4 | inactive: -1.38
5 | GGUCCCUUGAUGUCGAUUATT against Simp-pending | inactive: -0.645

(listing goes on)

Row | Sequence | z-score
24 | GGACCAGAUUCACCAUAUUTT against Ifi44 | inactive: -1.17
25 | GUGGAAAUUAAUCUGGGUUTT against MNCb-4137 | inactive: 0.244
26 | GCCAUGAUGUAGAGGUAGGTT against 2310012P17Rik | inactive: 0.797
27 | GGGAACUCCACUAAGGAAATT against Slc26a1 | inactive: 0.216
28 | GGUUUGUCAUUUCCUGCCCTT against Ian4 | inactive: 0.98
29 | CGGAAAACAUUGGACUCCCTT against 1700019I23Rik | inactive: -1.24
30 | GGCUGUCAUGGGUGAAUCCTT against Sprr2e | inactive: 0.966
31 | GGAGAAAAGUCUACAGAAATT against Areg | inactive: -0.69
32 | GGAGUAAACCUACUGCUCATT against Esam1 | inactive: 1.14
33 | GGAAAAUAAAAUUGCAUGCTT against Oas1d | inactive: 1.04
34 | GCUUAAUCAACUGGUACUATT against Olfr19 | inactive: -0.0443
35 | GGUACAGGGAAGGAUCGUGTT against Zfp469 | inactive: 1.51
36 | GGCCCUUUCUGUCACUUAGTT against Mylc2b | inactive: -2.22
37 | GGAAGAUGUGAAGAUUUAATT against Acvr1b | inactive: 1.47
38 | GGCCAUUUUUGAAAGCUAATT against Dcdc2 | inactive: 2.17
39 | GGCCCUGAGAAACUAUAGGTT against Myh1 | inactive: 0.912
40 | GCAUUAGUGGCAGAACUUUTT against Gcet2 | inactive: 1.88
41 | GGCAUUCAGAACUUACUAUTT against Ofd1 | inactive: 0.67
42 | GGCCGGGAAGAAAGAGAAATT against Ptn | inactive: -2.1
43 | CGGUUCCACUUCAAAUGACTT against Hsd17b2 | inactive: -0.774
44 | CGAAGCUGCAAAGGAGAAGTT against Igf1 | inactive: -0.732
45 | GCCGUUCAAAAAUUUGUCCTT against Cyp11b2 | inactive: 1.26
46 | GUGGUUGAACGGGAAUUUGTT against LOC433719 | inactive: 1

Row | Sequence | z-score
47 | GGGUAUGCUCAUCAUGCUGTT against 4732482E20Rik | inactive: -0.235
48 | GGUGUUUCGUCUACCCUUCTT against Olfr370 | inactive: 0.396
49 | CGACAUAAAGGCUUGUCAATT against Rabl3 | inactive: 1.66
50 | GCACCUAGAUUGAUCAUAGTT against Olfr1183 | inactive: -2.32
51 | GCAUUUCGUCAGGGCAAAATT against Fuca1 | inactive: 0.193
52 | GGAAGAAGAAAGAUCCAACTT against Tpt1h | inactive: 0.335
53 | GGACUCACGUCAAGAUGUUTT against 2610318C08Rik | inactive: -1.33
54 | GCCUUAAAAGACCUGACGUTT against Abca8b | inactive: 3.17
55 | GGUGACAGUACAGAAAAGUTT against 2410006N06Rik | inactive: 0.0931
56 | GGGCUUUGAGCGUGAGUACTT against Adcy7 | inactive: -0.354
57 | GGACUCAAACGACACAUGCTT against Peci | inactive: 1.44
58 | GGUACUUCUUCCUUGCUCATT against Itm2c | inactive: -0.243
59 | GAAGUUACAGUGAAGUCUCTT against Zfp395 | inactive: -1.52
60 | GGGAAGGUCACCGUCAAGUTT against Ppp1r14b | inactive: 0.437
61 | CGAACCCUGAAAGAACAUATT against AI315119 | inactive: -0.986
62 | GGUGAUGACCAACUCAGUGTT against Prcc | inactive: 0.428
63 | GGACAUCAUGGACCUGAAGTT against 2900011O08Rik | inactive: -2.75
64 | GCCGAUGAUGAGAAACGACTT against Cd2 | inactive: 0.716
65 | GGUGACCACUUCAUGUCACTT against 2900055D14Rik | inactive: 1.02
66 | GGAUUGACUUCAUGGAUAUTT against Btc | inactive: -1.27
67 | CCUACGAGGAUUAUGUUGATT against Myl6 | inactive: 0.727
